These are yes or no findings as the source states them, for the method shown. Some entries that bind do so weakly or less than the wild type.
Experiments:
[1] = substrate: PPP1CC1, two-hybrid bait pAS2-PPP1CC1 (human) (UniProt P36873); test: two-hybrid; sequential co-transformation of yeast AH109 with bait (pAS2) and prey (pACT2) plasmids; selective media with X-alpha-Gal, 30 C, MEL1 expression (blue colour)
[2] = substrate: PPP1CC1, two-hybrid bait pAS2-PPP1CC1 (human) (UniProt P36873); test: two-hybrid; screen of a human testis cDNA library with PPP1CC1 as bait; 120 positive clones recovered
[3] = molecular target: PPP1CC2, two-hybrid bait pAS2-PPP1CC2 (human) (UniProt P36873); test: two-hybrid; sequential co-transformation of yeast AH109 with bait (pAS2) and prey (pACT2) plasmids; selective media with X-alpha-Gal, 30 C, MEL1 expression (blue colour)
[4] = molecular target: PPP1CA, two-hybrid bait pAS2-PPP1CA (UniProt P62136); test: as above

Chains of the proteins cited; added tags and fusions are not shown. Lines headed by an entry give the natural chain unless they say otherwise; changes in a name come on top.
UniProt P36873: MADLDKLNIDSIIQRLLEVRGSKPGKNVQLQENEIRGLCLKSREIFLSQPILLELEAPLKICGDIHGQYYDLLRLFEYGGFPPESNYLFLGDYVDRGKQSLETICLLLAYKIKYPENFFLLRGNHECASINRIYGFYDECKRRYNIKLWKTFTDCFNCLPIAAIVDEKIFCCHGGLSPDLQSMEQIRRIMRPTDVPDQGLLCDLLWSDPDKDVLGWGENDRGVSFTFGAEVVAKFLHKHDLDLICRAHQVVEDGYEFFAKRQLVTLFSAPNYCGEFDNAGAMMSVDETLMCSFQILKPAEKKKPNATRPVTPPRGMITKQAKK
UniProt P62136: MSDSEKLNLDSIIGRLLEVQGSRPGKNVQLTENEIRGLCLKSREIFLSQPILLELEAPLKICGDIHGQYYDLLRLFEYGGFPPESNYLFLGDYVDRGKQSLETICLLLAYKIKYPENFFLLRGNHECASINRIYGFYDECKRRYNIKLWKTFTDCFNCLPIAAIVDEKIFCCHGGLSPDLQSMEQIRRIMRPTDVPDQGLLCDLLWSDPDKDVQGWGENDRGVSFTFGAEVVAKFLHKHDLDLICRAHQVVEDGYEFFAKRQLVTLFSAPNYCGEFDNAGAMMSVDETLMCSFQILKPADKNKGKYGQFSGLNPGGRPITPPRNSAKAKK

binding [1]: binds | binding [2]: binds | binding [3]: binds | binding [4]: binds
B1: PPP1R2P3 (PPP1R2 pseudogene 3), two-hybrid prey pACT2-PPP1R2P3 (protein, UniProt Q6NXS1 1-205)
chain: MAASTASHRPIKGILKNKTSTTSSMVASAEQPRRSVDEELSKKSQKWDEINILATYHPADKGYGLMKIDEPSPPYHSMMGDDEDACRDTETTEAMAPDILAKKLAAAEGLEPKYRIQEQESSGEEDSDLSPEEREKKRQFEMRRKLHYNEGLNIKLARQLISKDLHDDDEDEEMLETADGESMNTEESNQGSTPSDQQQNKLRSS

Source: article PMC3606321
